{"source": "PubChem BioAssay AID1224830 (NIAID, 2016)", "test": "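Regulators of TLR4 signalling towards TNF-alpha in macrophage-like cells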 (primary screen)", "cells": "human THP-1 monocytic leukaemia cells, TNF dual-luciferase reporter clone, PMA-differentiated to macrophage-like cells", "reagents": "siRNA pool against human genes, 50 nM", "duration": "LPS for 4 h, given about 3 days after siRNA transfection", "conditions": "bacterial LPS (TLR4 ligand), 10 ng/ml", "measured": "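TNF firefly reporter luminescence divided by renilla, normalised to the plate median, then turned into a robust z-score for each replicate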", "scale": "TNF reporter robust z-score: higher = stronger TNF reporter response to LPS", "call rule": "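a well is active when its z-score exceeds 2.8 or falls below -1.5; control wells carry no call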", "note": "The deposit covers about 18,000 reagents; below is an unselected part. About 2,900 of them (16%) were called active. 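Calls are made per well; low scores hint the gene aids the LPS response, high scores that it dampens it.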 Repeated entries: four replicate wells of each siRNA pool."}
{"gene": "RELA (GeneID 5970)", "TNF reporter robust z-score": -0.98, "Call": "inactive"}
{"gene": "RELA (GeneID 5970)", "TNF reporter robust z-score": -0.96, "Call": "inactive"}
{"gene": "RELA (GeneID 5970)", "TNF reporter robust z-score": -1.17, "Call": "inactive"}
{"gene": "RELA (GeneID 5970)", "TNF reporter robust z-score": -0.18, "Call": "inactive"}
{"gene": "AARS1 (GeneID 16)", "TNF reporter robust z-score": -0.15, "Call": "inactive"}
{"gene": "AARS1 (GeneID 16)", "TNF reporter robust z-score": 1.04, "Call": "inactive"}
{"gene": "AARS1 (GeneID 16)", "TNF reporter robust z-score": 0.5, "Call": "inactive"}
{"gene": "AARS1 (GeneID 16)", "TNF reporter robust z-score": 0.77, "Call": "inactive"}
{"gene": "PARS2 (GeneID 25973)", "TNF reporter robust z-score": -0.7, "Call": "inactive"}
{"gene": "PARS2 (GeneID 25973)", "TNF reporter robust z-score": -1.58, "Call": "active"}
{"gene": "PARS2 (GeneID 25973)", "TNF reporter robust z-score": -1.3, "Call": "inactive"}
{"gene": "PARS2 (GeneID 25973)", "TNF reporter robust z-score": -0.79, "Call": "inactive"}
{"gene": "AKR1C8 (GeneID 340811)", "TNF reporter robust z-score": -0.89, "Call": "inactive"}
{"gene": "AKR1C8 (GeneID 340811)", "TNF reporter robust z-score": 0.27, "Call": "inactive"}
{"gene": "AKR1C8 (GeneID 340811)", "TNF reporter robust z-score": -0.28, "Call": "inactive"}
{"gene": "AKR1C8 (GeneID 340811)", "TNF reporter robust z-score": 0.38, "Call": "inactive"}
{"gene": "FHIP2A (GeneID 57700)", "TNF reporter robust z-score": -0.27, "Call": "inactive"}
{"gene": "FHIP2A (GeneID 57700)", "TNF reporter robust z-score": -0.1, "Call": "inactive"}
{"gene": "FHIP2A (GeneID 57700)", "TNF reporter robust z-score": 0.27, "Call": "inactive"}
{"gene": "FHIP2A (GeneID 57700)", "TNF reporter robust z-score": 0.49, "Call": "inactive"}
{"gene": "SH3RF3 (GeneID 344558)", "TNF reporter robust z-score": -0.2, "Call": "inactive"}
{"gene": "SH3RF3 (GeneID 344558)", "TNF reporter robust z-score": -0.13, "Call": "inactive"}
{"gene": "SH3RF3 (GeneID 344558)", "TNF reporter robust z-score": -0.82, "Call": "inactive"}
{"gene": "SH3RF3 (GeneID 344558)", "TNF reporter robust z-score": 0.1, "Call": "inactive"}
{"gene": "SPACA4 (GeneID 171169)", "TNF reporter robust z-score": 0.56, "Call": "inactive"}
{"gene": "SPACA4 (GeneID 171169)", "TNF reporter robust z-score": -0.14, "Call": "inactive"}
{"gene": "SPACA4 (GeneID 171169)", "TNF reporter robust z-score": -0.75, "Call": "inactive"}
{"gene": "SPACA4 (GeneID 171169)", "TNF reporter robust z-score": 0.01, "Call": "inactive"}

No new results follow: entries from further up.
{"gene": "FHIP2A (GeneID 57700)", "TNF reporter robust z-score": -0.1, "Call": "inactive"}
{"gene": "FHIP2A (GeneID 57700)", "TNF reporter robust z-score": 0.27, "Call": "inactive"}
{"gene": "FHIP2A (GeneID 57700)", "TNF reporter robust z-score": 0.49, "Call": "inactive"}
{"gene": "SH3RF3 (GeneID 344558)", "TNF reporter robust z-score": -0.2, "Call": "inactive"}
{"gene": "SH3RF3 (GeneID 344558)", "TNF reporter robust z-score": -0.13, "Call": "inactive"}

Continued.
{"gene": "PGM3 (GeneID 5238)", "TNF reporter robust z-score": -1.32, "Call": "inactive"}
{"gene": "PGM3 (GeneID 5238)", "TNF reporter robust z-score": -0.85, "Call": "inactive"}
{"gene": "PGM3 (GeneID 5238)", "TNF reporter robust z-score": -0.66, "Call": "inactive"}
{"gene": "PGM3 (GeneID 5238)", "TNF reporter robust z-score": 1.48, "Call": "inactive"}
{"gene": "GPR146 (GeneID 115330)", "TNF reporter robust z-score": 2.55, "Call": "inactive"}
{"gene": "GPR146 (GeneID 115330)", "TNF reporter robust z-score": 1.44, "Call": "inactive"}
{"gene": "GPR146 (GeneID 115330)", "TNF reporter robust z-score": 2.56, "Call": "inactive"}
{"gene": "GPR146 (GeneID 115330)", "TNF reporter robust z-score": 1.66, "Call": "inactive"}
{"gene": "INO80B (GeneID 83444)", "TNF reporter robust z-score": -0.13, "Call": "inactive"}
{"gene": "INO80B (GeneID 83444)", "TNF reporter robust z-score": -0.69, "Call": "inactive"}
{"gene": "INO80B (GeneID 83444)", "TNF reporter robust z-score": -0.97, "Call": "inactive"}
{"gene": "INO80B (GeneID 83444)", "TNF reporter robust z-score": -0.47, "Call": "inactive"}
{"gene": "TMEM125 (GeneID 128218)", "TNF reporter robust z-score": -0.33, "Call": "inactive"}
{"gene": "TMEM125 (GeneID 128218)", "TNF reporter robust z-score": 1.42, "Call": "inactive"}
{"gene": "TMEM125 (GeneID 128218)", "TNF reporter robust z-score": 1.08, "Call": "inactive"}
{"gene": "TMEM125 (GeneID 128218)", "TNF reporter robust z-score": 0.7, "Call": "inactive"}
{"gene": "RNASE4 (GeneID 6038)", "TNF reporter robust z-score": -0.51, "Call": "inactive"}
{"gene": "RNASE4 (GeneID 6038)", "TNF reporter robust z-score": 0.29, "Call": "inactive"}
{"gene": "RNASE4 (GeneID 6038)", "TNF reporter robust z-score": 0.01, "Call": "inactive"}
{"gene": "RNASE4 (GeneID 6038)", "TNF reporter robust z-score": 0.71, "Call": "inactive"}
